{"source": "PubChem BioAssay AID1224830 (NIAID, 2016)", "screen": "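Host factors that control LPS-induced TNF expression in human macrophages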 (primary screen)", "system": "human THP-1 monocytic leukaemia cells, TNF dual-luciferase reporter clone, PMA-differentiated to macrophage-like cells", "reagent": "siRNA pool against human genes, 50 nM", "duration": "LPS for 4 h, given about 3 days after siRNA transfection", "conditions": "bacterial LPS (TLR4 ligand), 10 ng/ml", "detection": "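Ratio of firefly to renilla light, scaled to the plate median and expressed as a robust z-score per replicate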", "direction": "TNF reporter robust z-score: higher = stronger TNF reporter response to LPS", "call rule": "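a well is active when its z-score exceeds 2.8 or falls below -1.5; control wells carry no call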", "note": "Shown is one part, drawn at random, of about 18,000 deposited reagents. About 2,900 of all reagents (16%) count as active. 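Calls are made per well; low scores hint the gene aids the LPS response, high scores that it dampens it.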 Repeated entries: four replicate wells of each siRNA pool."}
{"gene": "CHSY1 (chondroitin sulfate synthase 1)", "TNF reporter robust z-score": -0.08, "Call": "inactive"}
{"gene": "CHSY1 (chondroitin sulfate synthase 1)", "TNF reporter robust z-score": 0.47, "Call": "inactive"}
{"gene": "CHSY1 (chondroitin sulfate synthase 1)", "TNF reporter robust z-score": -0.2, "Call": "inactive"}
{"gene": "CHSY1 (chondroitin sulfate synthase 1)", "TNF reporter robust z-score": 0.14, "Call": "inactive"}
{"gene": "PRDM11 (PR/SET domain 11)", "TNF reporter robust z-score": -0.11, "Call": "inactive"}
{"gene": "PRDM11 (PR/SET domain 11)", "TNF reporter robust z-score": -0.28, "Call": "inactive"}
{"gene": "PRDM11 (PR/SET domain 11)", "TNF reporter robust z-score": 1.01, "Call": "inactive"}
{"gene": "CA2 (carbonic anhydrase 2)", "TNF reporter robust z-score": 1.47, "Call": "inactive"}
{"gene": "CA2 (carbonic anhydrase 2)", "TNF reporter robust z-score": 1.64, "Call": "inactive"}
{"gene": "CA2 (carbonic anhydrase 2)", "TNF reporter robust z-score": 0.29, "Call": "inactive"}
{"gene": "CA2 (carbonic anhydrase 2)", "TNF reporter robust z-score": 1.55, "Call": "inactive"}
{"gene": "MR1 (major histocompatibility complex, class I-related)", "TNF reporter robust z-score": -1.54, "Call": "active"}
{"gene": "MR1 (major histocompatibility complex, class I-related)", "TNF reporter robust z-score": -1.37, "Call": "inactive"}
{"gene": "MR1 (major histocompatibility complex, class I-related)", "TNF reporter robust z-score": -1.73, "Call": "active"}
{"gene": "MR1 (major histocompatibility complex, class I-related)", "TNF reporter robust z-score": -1.53, "Call": "active"}
{"gene": "PDIA2 (protein disulfide isomerase family A member 2)", "TNF reporter robust z-score": -0.23, "Call": "inactive"}
{"gene": "PDIA2 (protein disulfide isomerase family A member 2)", "TNF reporter robust z-score": 0.68, "Call": "inactive"}
{"gene": "PDIA2 (protein disulfide isomerase family A member 2)", "TNF reporter robust z-score": 0.28, "Call": "inactive"}
{"gene": "PDIA2 (protein disulfide isomerase family A member 2)", "TNF reporter robust z-score": 0.06, "Call": "inactive"}
{"gene": "MCUR1 (mitochondrial calcium uniporter regulator 1)", "TNF reporter robust z-score": 0.92, "Call": "inactive"}
{"gene": "MCUR1 (mitochondrial calcium uniporter regulator 1)", "TNF reporter robust z-score": 0.65, "Call": "inactive"}
{"gene": "MCUR1 (mitochondrial calcium uniporter regulator 1)", "TNF reporter robust z-score": 0, "Call": "inactive"}
{"gene": "MCUR1 (mitochondrial calcium uniporter regulator 1)", "TNF reporter robust z-score": 1.58, "Call": "inactive"}
{"gene": "BTBD9 (BTB domain containing 9)", "TNF reporter robust z-score": 0.07, "Call": "inactive"}
{"gene": "BTBD9 (BTB domain containing 9)", "TNF reporter robust z-score": -0.6, "Call": "inactive"}
{"gene": "BTBD9 (BTB domain containing 9)", "TNF reporter robust z-score": 0.6, "Call": "inactive"}
{"gene": "BTBD9 (BTB domain containing 9)", "TNF reporter robust z-score": 0.72, "Call": "inactive"}
{"gene": "RAB32 (RAB32, member RAS oncogene family)", "TNF reporter robust z-score": -0.04, "Call": "inactive"}
{"gene": "RAB32 (RAB32, member RAS oncogene family)", "TNF reporter robust z-score": 0.24, "Call": "inactive"}
{"gene": "RAB32 (RAB32, member RAS oncogene family)", "TNF reporter robust z-score": 2.45, "Call": "inactive"}
{"gene": "RAB32 (RAB32, member RAS oncogene family)", "TNF reporter robust z-score": 0.23, "Call": "inactive"}
{"gene": "TDRD9 (tudor domain containing 9)", "TNF reporter robust z-score": -0.49, "Call": "inactive"}
{"gene": "TDRD9 (tudor domain containing 9)", "TNF reporter robust z-score": 0.17, "Call": "inactive"}
{"gene": "TDRD9 (tudor domain containing 9)", "TNF reporter robust z-score": -0.05, "Call": "inactive"}
{"gene": "TDRD9 (tudor domain containing 9)", "TNF reporter robust z-score": -0.04, "Call": "inactive"}
{"gene": "TULP4 (TUB like protein 4)", "TNF reporter robust z-score": 1.34, "Call": "inactive"}
{"gene": "TULP4 (TUB like protein 4)", "TNF reporter robust z-score": -0.15, "Call": "inactive"}
{"gene": "TULP4 (TUB like protein 4)", "TNF reporter robust z-score": 3.31, "Call": "active"}
{"gene": "TULP4 (TUB like protein 4)", "TNF reporter robust z-score": 3.01, "Call": "active"}
{"gene": "SMC3 (structural maintenance of chromosomes 3)", "TNF reporter robust z-score": 3.42, "Call": "active"}
{"gene": "SMC3 (structural maintenance of chromosomes 3)", "TNF reporter robust z-score": 6.73, "Call": "active"}
{"gene": "SMC3 (structural maintenance of chromosomes 3)", "TNF reporter robust z-score": 5.25, "Call": "active"}
{"gene": "SMC3 (structural maintenance of chromosomes 3)", "TNF reporter robust z-score": 1.99, "Call": "inactive"}
{"gene": "GANC (glucosidase alpha, neutral C)", "TNF reporter robust z-score": 0.56, "Call": "inactive"}
{"gene": "GANC (glucosidase alpha, neutral C)", "TNF reporter robust z-score": -0.04, "Call": "inactive"}
{"gene": "GANC (glucosidase alpha, neutral C)", "TNF reporter robust z-score": -1.26, "Call": "inactive"}
{"gene": "GANC (glucosidase alpha, neutral C)", "TNF reporter robust z-score": -0.02, "Call": "inactive"}

Entries listed so far whose gene name begins with B or b:
{"gene": "BTBD9 (BTB domain containing 9)", "TNF reporter robust z-score": 0.07, "Call": "inactive"}
{"gene": "BTBD9 (BTB domain containing 9)", "TNF reporter robust z-score": -0.6, "Call": "inactive"}
{"gene": "BTBD9 (BTB domain containing 9)", "TNF reporter robust z-score": 0.6, "Call": "inactive"}
{"gene": "BTBD9 (BTB domain containing 9)", "TNF reporter robust z-score": 0.72, "Call": "inactive"}
